Screening data, single-dose tests

Amino acid sequences for entries named in this document (tags omitted). Residues count along the entry.
UniProt I6X8D2, whole entry: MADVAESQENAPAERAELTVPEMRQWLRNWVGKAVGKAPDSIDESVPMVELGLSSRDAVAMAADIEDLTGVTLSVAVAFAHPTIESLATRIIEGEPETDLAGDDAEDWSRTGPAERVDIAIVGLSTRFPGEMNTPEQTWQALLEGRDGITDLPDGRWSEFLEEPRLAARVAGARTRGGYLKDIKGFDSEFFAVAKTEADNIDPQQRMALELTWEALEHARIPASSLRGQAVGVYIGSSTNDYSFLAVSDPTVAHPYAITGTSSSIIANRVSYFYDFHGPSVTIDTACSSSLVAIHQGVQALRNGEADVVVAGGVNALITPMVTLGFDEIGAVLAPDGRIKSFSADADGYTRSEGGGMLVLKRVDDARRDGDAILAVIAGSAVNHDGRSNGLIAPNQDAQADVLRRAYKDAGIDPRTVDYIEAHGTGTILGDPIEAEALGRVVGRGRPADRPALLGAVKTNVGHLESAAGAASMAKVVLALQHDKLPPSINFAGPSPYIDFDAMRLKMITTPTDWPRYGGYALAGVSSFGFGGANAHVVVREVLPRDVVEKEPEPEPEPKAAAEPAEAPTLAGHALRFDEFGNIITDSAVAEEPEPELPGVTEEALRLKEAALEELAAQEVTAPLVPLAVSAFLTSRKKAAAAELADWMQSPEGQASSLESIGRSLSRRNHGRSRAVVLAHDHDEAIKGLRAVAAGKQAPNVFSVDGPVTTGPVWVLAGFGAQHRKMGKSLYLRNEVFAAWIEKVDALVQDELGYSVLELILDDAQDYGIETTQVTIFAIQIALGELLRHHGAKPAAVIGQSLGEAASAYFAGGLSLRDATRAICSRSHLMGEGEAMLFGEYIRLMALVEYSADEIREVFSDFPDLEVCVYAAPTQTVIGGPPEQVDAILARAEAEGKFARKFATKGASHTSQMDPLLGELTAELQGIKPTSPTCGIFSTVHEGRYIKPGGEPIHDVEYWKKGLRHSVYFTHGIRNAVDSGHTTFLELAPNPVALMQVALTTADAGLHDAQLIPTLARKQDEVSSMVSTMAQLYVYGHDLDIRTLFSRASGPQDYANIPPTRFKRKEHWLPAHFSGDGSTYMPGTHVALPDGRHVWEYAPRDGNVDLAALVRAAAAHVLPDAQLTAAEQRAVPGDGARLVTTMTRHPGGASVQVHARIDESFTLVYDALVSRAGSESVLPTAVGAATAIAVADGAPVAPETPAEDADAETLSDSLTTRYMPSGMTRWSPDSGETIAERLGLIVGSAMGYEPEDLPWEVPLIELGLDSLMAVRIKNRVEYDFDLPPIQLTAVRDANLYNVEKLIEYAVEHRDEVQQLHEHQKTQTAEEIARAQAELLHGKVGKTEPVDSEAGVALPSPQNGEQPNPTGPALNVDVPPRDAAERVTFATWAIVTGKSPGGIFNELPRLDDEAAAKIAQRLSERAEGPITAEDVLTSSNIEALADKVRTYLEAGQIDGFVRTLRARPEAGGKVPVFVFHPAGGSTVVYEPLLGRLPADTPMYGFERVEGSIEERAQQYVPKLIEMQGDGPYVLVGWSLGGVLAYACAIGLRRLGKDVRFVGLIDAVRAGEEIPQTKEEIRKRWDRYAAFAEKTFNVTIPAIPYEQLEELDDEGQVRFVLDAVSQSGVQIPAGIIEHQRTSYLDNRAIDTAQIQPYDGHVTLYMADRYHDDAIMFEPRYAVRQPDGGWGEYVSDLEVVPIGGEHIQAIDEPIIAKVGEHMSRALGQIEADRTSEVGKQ
UniProt Q8IDJ8, 1-583: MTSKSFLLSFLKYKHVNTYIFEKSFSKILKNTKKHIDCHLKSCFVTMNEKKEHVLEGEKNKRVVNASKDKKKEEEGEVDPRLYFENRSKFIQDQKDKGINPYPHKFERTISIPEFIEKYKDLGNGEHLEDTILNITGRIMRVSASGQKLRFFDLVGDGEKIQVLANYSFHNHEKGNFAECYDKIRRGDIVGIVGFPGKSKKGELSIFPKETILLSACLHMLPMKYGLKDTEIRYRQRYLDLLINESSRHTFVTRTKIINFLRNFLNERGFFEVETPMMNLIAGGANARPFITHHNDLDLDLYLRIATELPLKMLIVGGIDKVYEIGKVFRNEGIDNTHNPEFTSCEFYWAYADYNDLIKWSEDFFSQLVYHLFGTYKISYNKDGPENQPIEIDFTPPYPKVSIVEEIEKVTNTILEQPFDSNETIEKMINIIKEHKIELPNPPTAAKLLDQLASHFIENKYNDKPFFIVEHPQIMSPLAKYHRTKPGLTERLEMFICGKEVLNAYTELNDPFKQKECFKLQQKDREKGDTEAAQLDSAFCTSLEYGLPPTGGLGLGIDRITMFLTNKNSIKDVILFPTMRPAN
UniProt P9WNZ1, whole entry: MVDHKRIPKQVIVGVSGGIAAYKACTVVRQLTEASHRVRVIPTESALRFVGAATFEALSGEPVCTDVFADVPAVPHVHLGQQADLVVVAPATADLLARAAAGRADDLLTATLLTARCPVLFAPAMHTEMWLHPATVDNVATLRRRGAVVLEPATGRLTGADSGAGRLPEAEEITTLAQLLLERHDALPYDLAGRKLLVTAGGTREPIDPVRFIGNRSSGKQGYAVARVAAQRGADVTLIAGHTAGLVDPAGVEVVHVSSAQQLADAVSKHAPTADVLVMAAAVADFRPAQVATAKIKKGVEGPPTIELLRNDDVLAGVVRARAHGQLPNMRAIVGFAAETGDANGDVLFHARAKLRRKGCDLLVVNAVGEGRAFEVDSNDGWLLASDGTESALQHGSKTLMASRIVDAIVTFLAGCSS

From ChEMBL document CHEMBL3988442, “University of Dundee, Small-Polar-MMV Screening Library” (2021).

Values are the deposited “Percent Effect”, in %.
The record does not define 0% and 100%; most values in the screen are far below 50% and negative numbers occur (in some assays of this library far below -100).
The compounds are a random part of those screened.
Two or more numbers in one place are separate tests of the same structure; such repeats can differ widely.
A dash means the value is not listed here; it may have been measured.

Pks13 thioesterase: 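Enzyme assay of the thioesterase domain of polyketide synthase 13; the read-out is not stated. Target: Polyketide synthase Pks13, Mycobacterium tuberculosis (UniProt I6X8D2). Concentration: 30 µM. The record gives no direction; the compounds picked for IC50 retests had high values, so higher reads as stronger inhibition. Size under these conditions: about 67,000 compounds, about 300 of them at 50% or above in at least one test.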
PfKRS1: 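Lysine-tRNA ligase, Plasmodium falciparum 3D7 (UniProt Q8IDJ8). Enzyme assay of the cytosolic lysyl-tRNA synthetase in 384-well plates, read by luminescence. Compounds at 30 µM. Higher reads as stronger inhibition, judged from the few compounds that gave an IC50. Of about 69,000 compounds tested this way, about 49 (0.071%) reached 50% or more in at least one test.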
CoaBC: 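Enzyme assay of CoaBC with a phosphate dye (Biomol Green) read at 650 nm. Target: Coenzyme A biosynthesis protein CoaBC, Mycobacterium tuberculosis (UniProt P9WNZ1). Compounds at 30 µM. Direction is inferred from only a few compounds that gave an IC50; most scored high, so higher reads as stronger inhibition. Most strong results did not repeat in a second test. Of about 67,000 compounds tested this way, about 40 (0.06%) reached 50% or more in at least one test.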

| Compound | Pks13 thioesterase | PfKRS1 | CoaBC |
|---|---|---|---|
| `Cc1ncsc1CN1C[C@H]2OCC[C@H]2[C@H](C(=O)NCC2CC2)C1` | -8.379 | 0.9798 | 3.083 |
| `CCOCCNC(=O)c1cccnc1Sc1cc(OC)ccc1OC` | -26.95 | 3.163 | 1.214 |
| `Cc1ccccc1CN(CCN(C)C)Cc1ncc[nH]1` | 5.292 | 6.478 | 0.6211 |
| `O=C(O)C1CCCN1c1nc(-c2ccc(Cl)c(Cl)c2)cc(C(F)(F)F)n1` (centres unmarked) | 10.99 | 10.14 | -2.103 |
| `CC(=O)N1CCC2(CCN(Cc3ccc(Cl)c(C(F)(F)F)c3)CC2)C1` | -4.342 | 3.417 | 2.101 |
| `Cc1c(-c2cc(-c3cnn(C)c3C)n(CC(=O)NC3CC3)n2)cnn1C` | -0.9634 | -3.765 | 1.214 |
| `CCOc1ccc(CN2CCC(c3ccn[nH]3)C2)cc1CO` (centres unmarked) | -4.334 | 1.608 | -0.7884 |
| `COc1ccc(CN2Cc3cnn(C)c3C(COCC3CC3)C2)cc1` (centres unmarked) | -42.31 | -1.706 | 9.474 |
| `COCCN(Cc1sccc1C)c1nc(C)nc2sccc12` | -22.2 | 3.763 | 5.607 |
| `Cc1cc(C(=O)N2CCC3(C2)CN(c2ccsc2)C(=O)CN3C)[nH]n1` (centres unmarked) | -5.538 | 4.421 | 5.477 |
| `O=C(O)CC1CN(Cc2ccccc2)CCO1` (centres unmarked) | -0.3092 | 1.746 | 1.035 |
| `COCCCNC(=O)Cc1cc(-c2ccc(Cl)cc2)on1` | -7.321 | -0.5955 | 14.29 |
| `CCOc1cc(C)nc(N2CCN(C(=O)c3cn[nH]c3CC)CC2)n1` | -2.572 | 1.013 | 4.462 |
| `COCC1COCCC12CCN(C(=O)COc1ccccc1)CC2` (centres unmarked) | 1.681 | 3.499 | 4.762 |
| `Cc1ccc(CN2CCC(O)(Cn3ccc4ncccc43)CC2)o1` | -118.1 | 4.483 | 0.9804 |
| `Cc1ccccc1-c1cc(C(=O)N2CCn3c(C)nnc3C2)[nH]n1` | -11.95 | 5.518 | 1.33 |
| `COc1ccc(NC(C)c2nnnn2-c2ccccc2)cc1F` (centres unmarked) | 5.531 | 2.923 | 1.408 |
| `COc1ccccc1-c1cc(C(=O)N2CCCC2)c2cnn(C)c2n1` | -14.79 | 1.844 | 0.5263 |
| `Cc1cc(NC(=O)C(C)Cn2cncn2)no1` (centres unmarked) | -23.39 & 6.573 | 2.643 & 5.705 | -0.5109 & -1.555 |
| `Cc1cnc(C(=O)N2CC[C@H]3[C@@H]2CCC(=O)N3c2cccnc2)cn1` | -1.82 | 2.161 | 5.068 |
| `CCOCC(=O)N1CCCn2c(nnc2Cn2cccc2)C1` | -8.572 | -29.36 | -5.654 |
| `O=C(O)c1cc(S(=O)(=O)Nc2ccccc2)cc2c1OCCO2` | -19.03 | -0.4776 | 9.796 |
| `c1cncc(NCCNC2CCCNC2)c1` (centres unmarked) | -25.58 | 5.241 | -30.99 |
| `CCCc1nc(N2CCCN(c3ccncc3)CC2)c2cnn(C)c2n1` | -57.08 | 7.251 | -41.77 |
| `O=C(NCC1CC1)[C@H]1C[C@H]2OCC[C@H]2N(Cc2ccoc2)C1` | -41.69 | -2.154 | 6.684 |
| `O=C(COCc1nc(-c2ccncc2)no1)N1CCCCC1` | -8.992 | 6.354 | 13.2 |
| `CN1CCN(CC2CC2)C(=O)C12CCN(C(=O)CC(F)(F)F)CC2` | -2.552 | 2.027 | -1.818 |
| `COc1ccccc1Oc1ncccc1CNC(=O)C1(C)CCCNC1` (centres unmarked) | -24.6 | 1.168 | 1.364 |
| `O=C(NCc1ccncc1)c1nc2c(o1)CN(C(=O)c1cccnc1)C2` | -23.18 | 13.52 | 3.257 |
| `Cc1cc(C[C@@H]2CCC[C@H]2NCc2cc(C)c(O)c(C)c2)on1` | -47.12 | 4.432 | 0.5556 |
| `c1ccc2sc(N3CCCC4(CCOC4)C3)nc2c1` (centres unmarked) | -18.24 | 11.89 | -4.481 |
| `Cn1cc(C(=O)Nc2ccnc(Oc3ccccc3)c2)ccc1=O` | 8.602 | 2.52 | 2.444 |
| `CN1CCc2nnc(C3CCCN3S(=O)(=O)c3ccc(F)cc3)n2CC1` (centres unmarked) | 6.019 | 0.1418 | 48.17 & 13.92 |
| `CN1CCC(Cc2nc(-c3cnccn3)n(Cc3ccccc3)n2)CC1` | -30.62 | 6.219 | -5.832 |
| `COCC1CC2(CCN(Cc3nc(C)cs3)CC2)CO1` (centres unmarked) | -6.581 | 1.87 | 2.599 |
| `O=C(CC1OCCc2ccsc21)NCC1CC1` (centres unmarked) | 5.82 | 4.721 | 8.448 |
| `COCCN(C(=O)c1ccc(OC)cc1)c1ccc(C#N)cc1` | 23.14 | -3.172 | -3.19 |
| `CN(Cc1nc(CS(C)(=O)=O)no1)c1ccccc1` | 10.07 | 4.014 | 1.106 |
| `CC(C)c1nc(CNC2CCCN(c3cccnn3)C2)no1` (centres unmarked) | 8.765 | 0.5377 | 6.699 |
| `Cc1cc(N2CCC(O)(CN(C)C(=O)CCN)CC2)c2cnccc2n1` | 8.627 | 0.1689 | 1.142 |
| `CCc1ncc2c(n1)CN(Cc1nc(-c3ccccn3)no1)CC2` | -28.32 | 0.09575 | 0.1669 |
| `CC(C)Nc1nc2c(c(NC3CC3)n1)CCN(C1CCOCC1)CC2` | -20.13 | 2.605 | - |
| `COCCOCC(=O)NC1CCN(c2ccccn2)CC1` | -24.21 | 2.291 | 3.125 |
| `COc1ccc(C2CC(=O)c3c(O)cc(O)cc3O2)cc1O` (centres unmarked) | -2.845 | 11.04 | 17.83 |

The last 4 entries again:

| Compound | Pks13 thioesterase | PfKRS1 | CoaBC |
|---|---|---|---|
| `CCc1ncc2c(n1)CN(Cc1nc(-c3ccccn3)no1)CC2` | -28.32 | 0.09575 | 0.1669 |
| `CC(C)Nc1nc2c(c(NC3CC3)n1)CCN(C1CCOCC1)CC2` | -20.13 | 2.605 | - |
| `COCCOCC(=O)NC1CCN(c2ccccn2)CC1` | -24.21 | 2.291 | 3.125 |
| `COc1ccc(C2CC(=O)c3c(O)cc(O)cc3O2)cc1O` (centres unmarked) | -2.845 | 11.04 | 17.83 |